From PubChem BioAssay AID344 (DTP/NCI, 2004) come the findings set out here.

The list shows only some results of the screen, not a fair sample: it gathers tests that were run many times, whatever their T/C, doses with no T/C, and many T/C values between a quarter and a half above the control. Further doses and runs are listed elsewhere. T/C: endpoint of the treated group in % of that of the vehicle group. Some entries give survivors of the animals treated and no T/C: the source files T/C as zero there, which appears to mark a toxic dose or a test without result, not a measured value. Some doses without a T/C left all or most animals alive at the check, yet need not have been tolerated: survival well below the control is almost never listed, so the zero probably covers shortened survival too. Counts of survivors are from the toxicity check (mostly the fifth day) where no day follows; animals may have died later. Schedules are NCI's codes, read here as Q, the interval in days (D) or hours (H), X, the number of doses. For survival time, the PubChem record calls one and a half times the control and up active, and a quarter to a half above the control has no call in these data; cut-offs in other NCI protocols can differ. Signs of the kind (2×) say how often a value occurs here.

The subject of the experiment is mice, LPC-1 plasma cell tumor ip, median survival T/C. Nature of the experiment: NCI In Vivo Anticancer Drug Screen. Data for tumor model Lieberman Plasma Cell No. 1 (LPC-1) (intraperitoneal) in unknown mice. The note with it: T/C endpoint: median survival time, higher T/C = longer survival. The procedure:
The antitumor activity of compounds was measured in mice bearing transplantable tumors. Survival or tumor size were measured and the results are expressed as the measurement made in the treated group (T) divided by the measurement made in the vehicle treated control group (C). The tumor model used in this assay is Lieberman Plasma Cell No. 1 (LPC-1) (intraperitoneal) in unknown mice

Setting [1] is: dose: 1.8 mg/kg/injection, schedule: Q01DX028 (sc), vehicle: saline.

On to `O=NN(CCCl)C(=O)NCCCl`, for which the T/C was 142 % of control (2×) under setting [1] and 133 % of control (dose: 14.0 mg/kg/injection, schedule: Q01DX028 (sc), vehicle: saline).
As for `CN(C)c1nc(N(C)C)nc(N(C)C)n1`, the survivor count by setting is: (dose: 100.0 mg/kg/injection, schedule: Q01DX009 (ip), vehicle: olive oil, sesame oil, peanut oil) 3 of 6; (dose: 200.0 mg/kg/injection, schedule: Q01DX009 (ip), vehicle: olive oil, sesame oil, peanut oil) 5 of 6; (dose: 400.0 mg/kg/injection, schedule: Q01DX009 (ip), vehicle: olive oil, sesame oil, peanut oil) 0 of 6; (dose: 800.0 mg/kg/injection, schedule: Q01DX009 (ip), vehicle: olive oil, sesame oil, peanut oil) 0 of 6; (dose: 1200.0 mg/kg/injection, schedule: Q01DX009 (ip), vehicle: olive oil, sesame oil, peanut oil) 0 of 6; (dose: 1600.0 mg/kg/injection, schedule: Q01DX009 (ip), vehicle: olive oil, sesame oil, peanut oil) 0 of 6. Also, the T/C (dose: 800.0 mg/kg/injection, schedule: Q01DX009 (ip), vehicle: other) was 136 % of control.
On to `O=C(O)CCc1c[nH]c2ccc(N(CCCl)CCCl)cc12`, for which the T/C was 139 % of control (dose: 4.0 mg/kg/injection, schedule: Q01DX028 (sc), vehicle: carboxymethylcellulose (CMC)) and 135 % of control (dose: 8.4 mg/kg/injection, schedule: Q01DX028 (sc), vehicle: carboxymethylcellulose (CMC)). Further, the survivor count (dose: 14.0 mg/kg/injection, schedule: Q01DX028 (sc), vehicle: carboxymethylcellulose (CMC)) was 8 of 8.
As for `CS(=O)(=O)OCCN(CCOS(C)(=O)=O)c1ccc(C=O)cc1`, the T/C under setting [1] is 139 % of control.
